For at least one entry, the source does not settle the construct or the ends of the probe. For part of these data: No signal at the amounts used counts as a negative. For part of these data: At least one verdict rests on a figure or table, not on a statement of the authors. For part of these data: Where a protein sequence is shown, tags need not be part of it.
Tests used:
BSA = BSA (UniProt P02769); test: dot blot (dsRNA immobilized); details: 1 mM Mg2+, BSA control; 50 mM Tris, 150 mM NaCl, 1 mM MgCl2, 1 mM DTT (pH of binding buffer not stated; protein fraction in 50 mM Tris, 150 mM NaCl, 50 mM imidazole pH 7.0); commercial protein
[1] = target: T1, Toll-9-V5/His (Drosophila melanogaster) (UniProt Q9VPH1); test: dot blot (protein immobilized, J2 anti-dsRNA); details: 1 mM Mg2+, dsRNA 2 ug/mL, concentration-dependent; 50 mM Tris, 150 mM NaCl, 1 mM MgCl2, 1 mM DTT (pH of binding buffer not stated; protein fraction in 50 mM Tris, 150 mM NaCl, 50 mM imidazole pH 7.0); recombinant protein
T1 sequence (looked up, limits assumed): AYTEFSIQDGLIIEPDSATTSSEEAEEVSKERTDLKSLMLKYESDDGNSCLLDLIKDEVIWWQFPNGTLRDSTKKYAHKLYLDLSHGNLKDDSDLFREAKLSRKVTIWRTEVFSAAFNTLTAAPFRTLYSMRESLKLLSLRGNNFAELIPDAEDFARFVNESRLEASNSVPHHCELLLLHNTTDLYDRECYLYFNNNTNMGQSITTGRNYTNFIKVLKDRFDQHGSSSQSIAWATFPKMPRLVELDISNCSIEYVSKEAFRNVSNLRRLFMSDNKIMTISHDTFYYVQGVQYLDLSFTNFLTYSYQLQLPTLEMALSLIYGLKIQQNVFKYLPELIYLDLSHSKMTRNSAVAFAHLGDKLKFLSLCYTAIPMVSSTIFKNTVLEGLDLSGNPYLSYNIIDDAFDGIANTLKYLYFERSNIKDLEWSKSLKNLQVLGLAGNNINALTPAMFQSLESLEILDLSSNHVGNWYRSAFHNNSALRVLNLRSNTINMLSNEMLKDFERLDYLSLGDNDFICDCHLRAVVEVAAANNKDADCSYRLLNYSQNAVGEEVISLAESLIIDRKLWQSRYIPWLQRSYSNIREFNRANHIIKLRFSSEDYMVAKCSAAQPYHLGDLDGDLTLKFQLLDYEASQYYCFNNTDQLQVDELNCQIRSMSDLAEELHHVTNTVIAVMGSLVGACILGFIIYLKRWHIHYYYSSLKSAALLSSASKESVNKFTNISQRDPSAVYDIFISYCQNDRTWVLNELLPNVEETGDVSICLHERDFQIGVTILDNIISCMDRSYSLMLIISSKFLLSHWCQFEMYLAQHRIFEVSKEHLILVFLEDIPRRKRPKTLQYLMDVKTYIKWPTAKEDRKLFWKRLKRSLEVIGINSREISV

Protein sequences, listed by entry. Tags and fused reporters are not part of them. Residues count along the entry.
UniProt P02769, 25-607: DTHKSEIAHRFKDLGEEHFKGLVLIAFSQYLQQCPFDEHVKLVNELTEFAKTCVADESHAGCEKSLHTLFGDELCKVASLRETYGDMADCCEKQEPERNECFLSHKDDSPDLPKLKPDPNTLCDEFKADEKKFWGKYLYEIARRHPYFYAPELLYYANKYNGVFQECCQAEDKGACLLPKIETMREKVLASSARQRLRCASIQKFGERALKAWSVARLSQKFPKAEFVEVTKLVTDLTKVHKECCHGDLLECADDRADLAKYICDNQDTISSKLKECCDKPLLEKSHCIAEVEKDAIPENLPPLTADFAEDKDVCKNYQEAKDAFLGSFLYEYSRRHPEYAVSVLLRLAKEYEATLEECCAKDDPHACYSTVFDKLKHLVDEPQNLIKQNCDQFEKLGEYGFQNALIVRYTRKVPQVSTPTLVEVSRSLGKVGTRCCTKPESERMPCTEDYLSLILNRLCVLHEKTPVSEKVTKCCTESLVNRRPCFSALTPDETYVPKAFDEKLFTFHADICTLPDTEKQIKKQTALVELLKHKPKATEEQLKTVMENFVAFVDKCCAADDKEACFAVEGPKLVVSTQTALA

[2] = target: T1, Toll-9-V5/His (Drosophila melanogaster); test: dot blot (dsRNA immobilized, anti-V5); details: 1 mM Mg2+, 20-2000 ng dsRNA, concentration-dependent, dsRNA identity taken from the reciprocal assay's Methods; 50 mM Tris, 150 mM NaCl, 1 mM MgCl2, 1 mM DTT (pH of binding buffer not stated; protein fraction in 50 mM Tris, 150 mM NaCl, 50 mM imidazole pH 7.0); recombinant protein

Sequence: GUGCACGUAUAACAACAGAUCGAUAUACCUGAUUGUGGGAUUCCUUCUCGUAGCUUUUUUUCGAAUUUCGGUUACCGGGAAUUACAGGAACGUAAUGCCCACGACGCUGUUUCUGUUCCAAAUGCCGCUCUACUGGAUAUGGAGCUUUACCGAUAUGGACCAAAGCACCCUGAGCUACUCGCACUGGAUACGUGACUCCCAUGGACUAGACUAUGCGGCCGGAAUGGCCUCCAACUACUUUCACGGCUACCUCAAACUUUCACUGCC / GGCAGUGAAAGUUUGAGGUAGCCGUGAAAGUAGUUGGAGGCCAUUCCGGCCGCAUAGUCUAGUCCAUGGGAGUCACGUAUCCAGUGCGAGUAGCUCAGGGUGCUUUGGUCCAUAUCGGUAAAGCUCCAUAUCCAGUAGAGCGGCAUUUGGAACAGAAACAGCGUCGUGGGCAUUACGUUCCUGUAAUUCCCGGUAACCGAAAUUCGAAAAAAAGCUACGAGAAGGAAUCCCACAAUCAGGUAUAUCGAUCUGUUGUUAUACGUGCAC [267 bp dsRNA]
- binding result (BSA): no binding
- binding result [1]: binds
- binding result [2]: binds
